Assay: Control experiments for heparan sulfate ELISA (interference by peptide)

peptide 19–2.5: synthetic antimicrobial peptide 19–2.5 belongs to the class of synthetic anti-lipopolysaccharide peptides (SALP = synthetic anti-LPS peptides)
detection of peptide by the HS ELISA (20μg/ml peptide in physiological saline (0.9%)): no detection | effect of peptide on detected HS concentration (peptide added to ELISA positive control (300ng/ml heparan sulfate)): did not alter the detected HS concentration

From paper PMC4658182, “The Synthetic Antimicrobial Peptide 19-2.5 Interacts with Heparanase and Heparan Sulfate in Murine and Human Sepsis” (PLoS ONE, 2015)
